# Reference: the supplement of paper PMC8728848
# The list shows a part of the results.
# B1: GS13814A-bth-462-26-462 (Bacteroides thetaiotaomicron) (protein)
# chain: DDRDNLMVNDQIGLLHSTYTETEIFRGMDTPYQLFVIKSGKGKQETEVSISVDETVLQSYNTDNGTSIQLLPSDCYTILQPALRLNDSDYRKAFDIKWNADRLSDLLSTGKEYGLPIQMSVVQNFISADDERLKTIIVPTIKEPYLQMDVPGMSPVTDFMPTFGDLNERELFVKIRTNYSNDEDISFQIEVDPQLVIDYNTAHGTAYKMLPESSFTVDNKGVILTGMKETFIKIKYHKKGLIPEEGTYLFGDYVLPLRITSVSKYGISPDAASKLYTVKFQPDPIDKKGWSVIDFNNCCTQDGGWYLNMGWGVESLIDNNPGTQWLCRWDVKEPLPYYFVFDMGKEYTLFRFGFANPVAPAAHVWAGTSKAGYVEASIDNENWVKLKDWTSPKIGEPNVNMDVPATQARYIRFVITDTYPTYDGLRVSLGEVYAWGM
# Key:
# Experiment in all cases: glycan array binding signal (z-score within array); higher = stronger binding
# Details in all cases: glycan notation: IUPAC condensed, linker removed
# [1] = target: GalNAc3S(b1-4)[Fuc(a1-3)]GlcNAc
# Outline: (§1)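 The binding signal is a Z-score computed within each array and averaged over linkers. Arrays of the same protein sequence at different concentrations or buffers were also averaged together. Data originate from 3228 arrays in the Consortium for Functional Glycomics database, kept only where the protein sequence was available.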
# GalNAc4S6S(b1-4)GlcNAc = target: GalNAc4S6S(b1-4)GlcNAc
# Outline: as §1
# GalNAc6S(b1-4)GlcNAc = target: GalNAc6S(b1-4)GlcNAc
# Outline: as §1
# Glc(a1-4)Glc = target: Glc(a1-4)Glc
# Outline: as §1
# [2] = target: Glc(a1-4)Glc(a1-4)Glc(a1-4)Glc
# Outline: as §1
# Glc(a1-6)Glc(a1-6)Glc = target: Glc(a1-6)Glc(a1-6)Glc
# Outline: as §1
# [3] = target: Glc(a1-6)Glc(a1-6)Glc(a1-6)Glc
# Outline: as §1
# Glc(b1-4)Glc = target: Glc(b1-4)Glc
# Outline: as §1
# Glc(b1-6)Glc = target: Glc(b1-6)Glc
# Outline: as §1
# GlcA(b1-3)Gal = target: GlcA(b1-3)Gal
# Outline: as §1
# GlcA(b1-3)GlcNAc = target: GlcA(b1-3)GlcNAc
# Outline: as §1
# GlcA(b1-6)Gal = target: GlcA(b1-6)Gal
# Outline: as §1
# [4] = target: GlcA3S(b1-3)Gal(b1-4)GlcNAc(b1-2)Man
# Outline: as §1
# [5] = target: GlcA3S(b1-3)Gal(b1-4)GlcNAc(b1-3)Gal(b1-4)Glc
# Outline: as §1
# [6] = target: GlcNAc(a1-3)Gal(b1-4)GlcNAc
# Outline: as §1
# [7] = target: GlcNAc(a1-4)Gal(b1-3)GlcNAc
# Outline: as §1
# [8] = target: GlcNAc(a1-4)Gal(b1-4)GalNAc
# Outline: as §1
# [9] = target: GlcNAc(a1-4)Gal(b1-4)GlcNAc
# Outline: as §1
# [10] = target: GlcNAc(a1-4)Gal(b1-4)GlcNAc(b1-3)Gal(b1-4)Glc
# Outline: as §1
# [11] = target: GlcNAc(a1-4)Gal(b1-4)GlcNAc(b1-3)Gal(b1-4)GlcNAc
# Outline: as §1
# [12] = target: GlcNAc(a1-4)Gal(b1-4)GlcNAc(b1-3)Gal(b1-4)GlcNAc(b1-3)Gal(b1-4)GlcNAc
# Outline: as §1
# [13] = target: GlcNAc(a1-4)Gal(b1-4)GlcNAc(b1-3)Gal(b1-4)[Fuc(a1-3)]GlcNAc(b1-3)Gal(b1-4)[Fuc(a1-3)]GlcNAc
# Outline: as §1
# [14] = target: GlcNAc(a1-6)Gal(b1-4)GlcNAc
# Outline: as §1
# [15] = target: GlcNAc(b1-2)Gal(b1-3)GalNAc
# Outline: as §1
# [16] = target: GlcNAc(b1-2)Man(a1-3)[GlcNAc(b1-2)Man(a1-6)]Man(b1-4)GlcNAc(b1-4)GlcNAc
# Outline: as §1
# [17] = target: GlcNAc(b1-2)Man(a1-3)[GlcNAc(b1-2)Man(a1-6)]Man(b1-4)GlcNAc(b1-4)[Fuc(a1-6)]GlcNAc
# Outline: as §1
# [18] = target: GlcNAc(b1-2)Man(a1-3)[GlcNAc(b1-4)][GlcNAc(b1-2)Man(a1-6)]Man(b1-4)GlcNAc(b1-4)GlcNAc
# Outline: as §1
# [19] = target: GlcNAc(b1-2)Man(a1-3)[GlcNAc(b1-4)][GlcNAc(b1-2)Man(a1-6)]Man(b1-4)GlcNAc(b1-4)[Fuc(a1-6)]GlcNAc
# Outline: as §1
# [20] = target: GlcNAc(b1-2)[GlcNAc(b1-4)]Man(a1-3)[GlcNAc(b1-2)Man(a1-6)]Man(b1-4)GlcNAc(b1-4)GlcNAc
# Outline: as §1
# [21] = target: GlcNAc(b1-2)[GlcNAc(b1-4)]Man(a1-3)[GlcNAc(b1-4)][GlcNAc(b1-2)Man(a1-6)]Man(b1-4)GlcNAc(b1-4)GlcNAc
# Outline: as §1
# [22] = target: GlcNAc(b1-2)[GlcNAc(b1-4)]Man(a1-3)[GlcNAc(b1-4)][GlcNAc(b1-2)[GlcNAc(b1-6)]Man(a1-6)]Man(b1-4)GlcNAc(b1-4)GlcNAc
# Outline: as §1
# [23] = target: GlcNAc(b1-2)[GlcNAc(b1-4)]Man(a1-3)[GlcNAc(b1-4)][GlcNAc(b1-2)[GlcNAc(b1-6)]Man(a1-6)]Man(b1-4)GlcNAc(b1-4)[Fuc(a1-6)]GlcNAc
# Outline: as §1
# [24] = target: GlcNAc(b1-2)[GlcNAc(b1-6)]Man(a1-6)[GlcNAc(b1-2)Man(a1-3)]Man(b1-4)GlcNAc(b1-4)GlcNAc
# Outline: as §1
# [25] = target: GlcNAc(b1-2)[GlcNAc(b1-6)]Man(a1-6)[GlcNAc(b1-2)Man(a1-3)]Man(b1-4)GlcNAc(b1-4)[Fuc(a1-6)]GlcNAc
# Outline: as §1
# [26] = target: GlcNAc(b1-2)[GlcNAc(b1-6)]Man(a1-6)[GlcNAc(b1-4)][GlcNAc(b1-2)Man(a1-3)]Man(b1-4)GlcNAc(b1-4)GlcNAc
# Outline: as §1
# GlcNAc(b1-3)Fuc = target: GlcNAc(b1-3)Fuc
# Outline: as §1
# GlcNAc(b1-3)Gal = target: GlcNAc(b1-3)Gal
# Outline: as §1
# [27] = target: GlcNAc(b1-3)Gal(b1-3)GalNAc
# Outline: as §1
binder,measurement,setting,value
B1,glycan array binding signal (z-score),[1],-0.189
same,glycan array binding signal (z-score),GalNAc4S6S(b1-4)GlcNAc,0.092
same,glycan array binding signal (z-score),GalNAc6S(b1-4)GlcNAc,-0.938
same,glycan array binding signal (z-score),Glc(a1-4)Glc,-0.58
same,glycan array binding signal (z-score),[2],0.18
same,glycan array binding signal (z-score),Glc(a1-6)Glc(a1-6)Glc,-0.354
same,glycan array binding signal (z-score),[3],-0.42
same,glycan array binding signal (z-score),Glc(b1-4)Glc,0.52
same,glycan array binding signal (z-score),Glc(b1-6)Glc,-1.1
same,glycan array binding signal (z-score),GlcA(b1-3)Gal,-0.279
same,glycan array binding signal (z-score),GlcA(b1-3)GlcNAc,0.458
same,glycan array binding signal (z-score),GlcA(b1-6)Gal,0.223
same,glycan array binding signal (z-score),[4],0.246
same,glycan array binding signal (z-score),[5],-0.316
same,glycan array binding signal (z-score),[6],-0.082
same,glycan array binding signal (z-score),[7],-0.721
same,glycan array binding signal (z-score),[8],-0.027
same,glycan array binding signal (z-score),[9],0.313
same,glycan array binding signal (z-score),[10],0.282
same,glycan array binding signal (z-score),[11],0.176
same,glycan array binding signal (z-score),[12],-0.445
same,glycan array binding signal (z-score),[13],1.95
same,glycan array binding signal (z-score),[14],-0.496
same,glycan array binding signal (z-score),[15],-0.139
same,glycan array binding signal (z-score),[16],-0.449
same,glycan array binding signal (z-score),[17],0.205
same,glycan array binding signal (z-score),[18],1.23
same,glycan array binding signal (z-score),[19],-0.494
same,glycan array binding signal (z-score),[20],-1.09
same,glycan array binding signal (z-score),[21],-0.312
same,glycan array binding signal (z-score),[22],0.624
same,glycan array binding signal (z-score),[23],-0.683
same,glycan array binding signal (z-score),[24],-1.76
same,glycan array binding signal (z-score),[25],-0.18
same,glycan array binding signal (z-score),[26],0.238
same,glycan array binding signal (z-score),GlcNAc(b1-3)Fuc,0.13
same,glycan array binding signal (z-score),GlcNAc(b1-3)Gal,-0.971
same,glycan array binding signal (z-score),[27],-0.512

# Two entries from above, reformatted.
binder	measurement	setting	value
B1	glycan array binding signal (z-score)	[1]	-0.189
same	glycan array binding signal (z-score)	GalNAc4S6S(b1-4)GlcNAc	0.092
